These results are taken from PubChem BioAssay AID493014 (National Center for Advancing Translational Sciences (NCATS), 2011).

Each structure is given as a SMILES string. Some of the results follow. Further columns of the screen follow, without active or inactive calls. Compounds called inactive in the main read-out are mostly missing here. The note in brackets gives the kind of curve behind each potency; many fits are weak.

This assay can be described thus: qHTS Assay to Find Inhibitors of Chronic Active B-Cell Receptor Signaling. The note with it: ABC-DLBCL IkBa-CBG/CBR reporter, luminescence ratio (green luciferase fused to IkBa over red control in TMD8 lymphoma cells), 4 h. The method, boiled down:
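TMD8 ABC-DLBCL cells carrying doxycycline-inducible green luciferase fused to IkappaBalpha plus unfused red luciferase were exposed to compounds (up to 46 uM) for 4 hrs at 37C. Activity came from the overlap-corrected green/red luminescence ratio.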

[1] abbreviates: measured here: CBR red luminescence, cell number.
The mark [2] stands for this setting: measured here: IkBa-CBG green luminescence.

For the molecule `CC[C@]12c3[nH]c4cc(-c5ccco5)ccc4c3CCN1C(=O)[C@@H](CC(=O)NCCc1ccccn1)C[C@@H]2C(=O)N1CCN(C(=O)c2ccco2)CC1`, under setting [1], the AC50 is 7.31 µM [rising, partial curve, poor fit].

On to `Cc1ccc(S(=O)(=O)Nc2cccc3cccnc23)cc1`, for which the AC50 runs as follows: under setting [1], 4.11 µM [rising, full curve, poor fit]; under setting [2], 4.61 µM [falling, full curve].

For `COc1cc(C(=O)OC(C)CN2CCCC2)cc(OC)c1OC` (stereo not given), the AC50 is, setting by setting: under setting [1], 3.66 µM [falling, full curve]; under setting [2], 6.51 µM [rising, partial curve, poor fit].

As to `O=C(COC(=O)C(Cc1ccccc1)NC(=O)c1cccs1)NCc1ccccc1` (stereo not given), the AC50 under setting [1] was 16.4 µM [rising, single point].

As to `CCN(CC(=O)Nc1c(F)cccc1F)C(=O)CNC(=O)c1ccc(C)s1`, the half-maximal activity concentration (AC50) under setting [1] is 31.6 µM [falling, single point].

With `CC(=O)Nc1cccc(NC(=O)C(=O)c2cn(CC(=O)N3CCCCC3)c3ccccc23)c1`, under setting [1], the AC50 is 1.26 µM [falling, full curve].

On to `Cc1cccn2c(=O)c3cc(C(=O)NCc4ccco4)c(=N)n(CCc4ccccc4)c3nc12`, for which the AC50 under setting [1] is 1.12 µM [falling, full curve] and the AC50 under setting [2] is 12.6 µM [rising, partial curve, poor fit].

Turning to `COC(=O)CSc1ccc(S(=O)(=O)N2CCCCCC2)cc1[N+](=O)[O-]`, the AC50 under setting [1] is 6.31 µM [falling, full curve].

Turning to `O=C(CN1CCC(NC(=O)c2cccc(F)c2)CC1)Nc1ccc(Br)cc1`, the half-maximal activity concentration (AC50) under setting [2] is 15.8 µM [rising, partial curve, poor fit].

Regarding `CC1CC1C(=O)Nc1nc2ccc(S(C)(=O)=O)cc2s1` (stereo not given), under setting [1], the AC50 is 25.1 µM [rising, single point].

On to `CC(C)(C)NC(=S)N/N=C/c1c(Cl)cccc1Cl`, for which the AC50 under setting [1] is 35.5 µM [rising, single point].

Regarding `CCc1ccccc1NC(=O)CC(c1ccc(OC)cc1)n1cccc1` (stereo not given), the AC50 under setting [1] was 0.184 µM [falling, partial curve, poor fit].

For the molecule `c1ccc(-c2cc(N3CCCCCC3)n[nH]2)cc1`, the AC50 under setting [1] was 0.00461 µM [falling, full curve, poor fit].

For `CCC(CC)C(=O)Nc1c2cnn(-c3ccccc3)c2nc(=O)n1-c1ccccc1`, the AC50 under setting [1] is 25.1 µM [falling, single point].

Regarding `COC(=O)CC/C(O)=C1/C(=N)CC(C)(C)CC1=O`, the AC50 under setting [1] was 3.26 µM [rising, partial curve, poor fit].

Regarding `CCOC(=O)C1CCN(Cc2nc3ccc([N+](=O)[O-])cc3c(=O)n2-c2ccc(OC)cc2OC)CC1`, the AC50 under setting [1] is 14.1 µM [falling, partial curve, poor fit].

As to `CCCCc1ccc(NS(=O)(=O)c2cccc(C(=O)N3CCCN(C)CC3)c2)cc1`, under setting [1], the AC50 is 29.1 µM [falling, single point].

Turning to `COc1ccc(NC(=O)Nc2nnc(-c3ccccc3SCc3ccccc3)s2)cc1`, the concentration at half-maximal activity (AC50) under setting [1] is 0.00461 µM [falling, full curve, poor fit].

`CCc1cccc(C)c1NC(=S)N(CCCN1CCN(C)CC1)Cc1cccs1`: the half-maximal activity concentration (AC50) under setting [1] was 4.47 µM [falling, partial curve, poor fit].

Consider `COc1ccc(/C=C2\CCc3ccccc3C2=O)cc1OC`, for which, under setting [1], the AC50 is 35.5 µM [falling, single point].

Turning to `CCOc1ccccc1NC(=O)C(CC(C)C)NC(=O)C1CCCCC1` (stereo not given), under setting [1], the AC50 is 23.1 µM [rising, single point].

On to `Nc1c(-c2ccccc2)c(CSc2nc3ccccc3[nH]2)nn1-c1ccc(Cl)cc1`, for which the AC50 under setting [1] is 3.26 µM [rising, partial curve, poor fit].

For `O=c1c2c(nc3nc(Cc4ccccc4)[nH]n13)CCC2`, the concentration at half-maximal activity (AC50) under setting [1] was 9.2 µM [falling, partial curve, poor fit].

With `Cc1ccc(C(=O)Nc2cccc3cccnc23)cc1C`, the AC50 under setting [1] was 4.47 µM [rising, full curve, poor fit].

As to `OC1c2cc(Br)ccc2N=C2CCCN21` (stereo not given), the AC50 under setting [1] was 22.4 µM [falling, partial curve, poor fit].

Consider `CCCn1c(=O)c(C(=O)Nc2ccccc2C(=O)OC)c(O)c2ccccc21`, for which the AC50 under setting [1] was 2.51 µM [rising, full curve, poor fit].

`C=CCN(c1ccccc1OC)S(=O)(=O)c1cccc(C(=O)NCc2cccs2)c1`: under setting [1], the AC50 was 10.3 µM [rising, partial curve].

For the molecule `CC(=NCc1ccncc1)C1=C(O)c2ccccc2C1=O`, the AC50 under setting [1] was 2.06 µM [rising, single point].

In the case of `c1ccc(CCNc2nc(-c3ccncc3)cs2)cc1`, the half-maximal activity concentration (AC50) under setting [1] is 14.1 µM [falling, single point].

On to `COc1ccc2c(c1)C(=NNc1ccc(C(=O)O)cc1)c1cc(OC)ccc1-2`, for which the concentration at half-maximal activity (AC50) under setting [1] is 11.2 µM [falling, partial curve, poor fit].

Turning to `CCN(CC)CCCNc1nc(-n2nc(C)cc2C)nc2sc3c(c12)CC(C)(C)OC3`, under setting [1], the AC50 is 5.01 µM [falling, full curve, poor fit].

Take `O=C(CN1CCN(c2ccccc2)CC1)Nc1c(C(=O)C2CC2)oc2ccccc12`: the half-maximal activity concentration (AC50) under setting [1] was 1.3 µM [rising, full curve].

`COc1cccc(NC(=O)CN(C)C(=O)c2ccc(-c3ccccc3Cl)o2)c1`: under setting [1], the AC50 is 35.5 µM [falling, single point].

For the molecule `Cc1cccc2sc(N(CCCN(C)C)C(=O)c3ccc(C(=O)c4ccccc4)cc3)nc12`, under setting [1], the AC50 is 7.94 µM [falling, partial curve, poor fit].

On to `Cc1cc(C)c(/C=N/NC(=O)c2nnn(-c3nonc3N)c2CN2CCC(C)CC2)c(C)c1`, for which, under setting [1], the concentration at half-maximal activity (AC50) is 4.47 µM [rising, full curve, poor fit].

`C=CCc1ccc(OCc2ccc(C(=O)Nc3ccc(NC(C)=O)cc3)o2)c(OC)c1`: the half-maximal activity concentration (AC50) under setting [1] was 1.41 µM [falling, full curve, poor fit].

In the case of `CCCC1(c2ccccc2)NC(=O)N(CC(=O)c2[nH]c(C)c(C(=O)OCC)c2C)C1=O` (stereo not given), the AC50 under setting [1] is 7.94 µM [falling, partial curve, poor fit].

Turning to `Cc1cnc(NC(=O)CC2CCCC2)s1`, the AC50 under setting [1] is 35.5 µM [falling, partial curve, poor fit].

Turning to `CC(=O)N/C(=N\c1nc(C)cc(C)n1)Nc1ccccc1Cl`, the AC50 under setting [1] is 2.51 µM [rising, full curve, poor fit].

With `CCCOc1ccc(C(=O)NNC(=S)NC(=O)c2cccs2)cc1`, the AC50 under setting [1] is 31.6 µM [rising, single point].

Consider `Cc1ccc(Nc2cc(C)c3c(O)cccc3n2)cc1C`, for which, under setting [1], the AC50 is 7.08 µM [rising, full curve, poor fit].

For `CN=Cc1nc(-c2ccccc2)oc1O`, under setting [1], the half-maximal activity concentration (AC50) was 6.51 µM [rising, single point].

For `COc1ccccc1NS(=O)(=O)c1ccc(C(=O)N2CCCC(C(F)(F)F)C2)cc1` (stereo not given), the half-maximal activity concentration (AC50) under setting [1] was 0.146 µM [falling, full curve, poor fit].

For `CCOC(=O)C(C)/C(C)=N/NC(=O)c1cc2ccccc2cc1O` (stereo not given), the AC50 under setting [1] was 18.4 µM [falling, single point].

Turning to `O=C(CCCCCNC(=O)c1ccccc1)N=Nc1c(O)[nH]c2c(Br)cc(Br)cc12`, the AC50 under setting [1] was 0.891 µM [falling, partial curve, poor fit].

Turning to `O=C(Cn1cnc2cc([N+](=O)[O-])ccc2c1=O)Nc1cccc(S(=O)(=O)N2CCOCC2)c1`, under setting [1], the AC50 was 35.5 µM [falling, single point].

For the molecule `Oc1ccc(/C=N/NC(=S)N2CCOCC2)cc1`, the AC50 by setting is: under setting [1], 3.55 µM [falling, partial curve]; under setting [2], 5.62 µM [falling, single point].

Turning to `COc1ccccc1C(=O)N/N=C/c1ccc(Cl)s1`, the AC50 under setting [1] is 16.4 µM [falling, partial curve].

As to `O=C(Nc1ccccc1)N1CCn2c(nc3ccccc32)C1`, the concentration at half-maximal activity (AC50) under setting [1] was 12.6 µM [falling, partial curve, poor fit].

As for `O=C(Nc1ccc(Cl)cc1)OCCn1nnnc1C(c1ccccc1)N1CCOCC1` (stereo not given), the AC50 under setting [1] was 25.9 µM [rising, single point].

Turning to `COc1cc(C(=O)OCCNC(=O)c2ccccc2)cc(OC)c1OC`, the AC50 under setting [1] was 25.1 µM [rising, partial curve, poor fit].

`Cc1cc(C)nc(SCC(=O)N/N=C/c2cccn2-c2cccc(C(F)(F)F)c2)n1`: the AC50 under setting [1] was 35.5 µM [falling, partial curve, poor fit].

Regarding `CN(C)C(=O)CN(c1ccc(F)c(Cl)c1)S(C)(=O)=O`, under setting [1], the concentration at half-maximal activity (AC50) is 6.51 µM [falling, single point].

On to `CC(=O)Nc1ccc(/C(C)=N/Nc2nc(Nc3ccccc3)nc(N3CCOCC3)n2)cc1`, for which the AC50 under setting [1] was 15.8 µM [falling, single point].

Turning to `CC(C)CNC(=O)c1nn(Cc2ccccc2)c(=O)c2ccccc12`, under setting [1], the half-maximal activity concentration (AC50) was 25.1 µM [falling, single point].

On to `CCCc1nnc(NC(=O)c2nc(S(=O)(=O)Cc3cccc(C)c3)ncc2Cl)s1`, for which the AC50 under setting [1] was 11.2 µM [falling, partial curve] and the AC50 under setting [2] is 11.2 µM [rising, partial curve].

`c1ccc(-n2ncc3c(N4CCCC4)ncnc32)cc1`: the AC50 under setting [1] was 0.708 µM [rising, full curve, poor fit].

On to `CCOc1ccc(NC(=O)CN2CCN(C(=O)c3ccco3)CC2)cc1S(=O)(=O)N1CCCC1`, for which, under setting [1], the AC50 is 5.17 µM [rising, partial curve, poor fit].

`Cn1c(=O)cc(C(=O)N/N=C/c2ccc(F)cc2)[nH]c1=O`: the AC50 under setting [1] was 31.6 µM [falling, single point].

As to `COCc1nnc(NC(=O)c2ccccc2[N+](=O)[O-])s1`, the AC50 under setting [1] is 23.1 µM [rising, partial curve, poor fit].
